Results published in patent publication US20040115191A1.
Results are given in words; binding and its absence hold for the method and conditions named. Some results given as binding are weak or reduced against the parent protein; the word gives no strength.

How the values were obtained:
IL-17D [1] = molecular target: T1, IL-17D (UniProt Q8TAD2); assay: binding of iodinated IL-17D to BHK cells transfected with MSP-5 cDNA
T1 sequence (iodinated in the BHK cell assay (residues not stated), looked up): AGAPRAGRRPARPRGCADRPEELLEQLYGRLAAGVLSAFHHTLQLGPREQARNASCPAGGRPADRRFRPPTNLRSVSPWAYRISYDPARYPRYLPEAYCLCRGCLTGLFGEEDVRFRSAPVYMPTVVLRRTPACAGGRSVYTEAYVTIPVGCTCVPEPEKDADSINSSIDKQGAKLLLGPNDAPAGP

IL-17D [2] = molecular target: T1, IL-17D; assay: secretion trap technique

B1: Membrane-Spanning Protein-5 (MSP-5) (receptor)
chain: EPHPHATIRGSHGGRKVPLVSPDSSRPARFLRHTGRSRGIERSTLEEPNLQPLQRRRSVPVLRLARPTEPPARSDINGAAVRPEQRPAARGSPREMIRDEGSSARSRMLRFPSGSSSPNILASFAGKNRVWVISAPHASEGYYRLMMSLLKDDVYCELAERHIQQIVLFHQAGEEGGKVRRITSEGQILEQPLDPSLIPKLMSFLKLEKGKFGMVLLKKTLQVEERYPYPVRLEAMYEVIDQGPIRRIEKIRQKGFVQKCKASGVEGQVVAEGNDGGGGAGRPSLGSEKKKEDPRRAQVPPTRESRVKVLRKLAATAPALPQPPSTPRATTLPPAPATTVTRSTSRAVTVAARPMTTTAFPTTQRPWTPSPSHRPPTTTEVITARRPSVSENLYPPSRKDQHRERPQTTRRPSKATSLESFTNAPPTTISEPSTRAAGPGRFRDNRMDRREHGHRDPNVVPGPPKPAKEKPPKKKAQDKILSNEYEEKYDLSRPTASQLEDELQVGNVPLKKAKESKKHEKLEKPEKEKKKKMKNENADKLLKSEKQMKKSEKKSKQEKEKSKKKKGGKTEQDGYQKPTNKHFTQSPKKSVADLLGSFEGKRRLLLITAPKAENNMYVQQRDEYLESFCKMATRKISVITIFGPVNNSTMKIDHFQLDNEKPMRVVDDEDLVDQRLISELRKEYGMTYNDFFMVLTDVDLRVKQYYEVPITMKSVFDLIDTFQSRIKDMEKQKKEGIVCKEDKKQSLENFLSRFRWRRRLLVISAPNDEDWAYSQQLSALSGQACNFGLRHITILKLLGVGEEVGGVLELFPINGSSVVEREDVPAHLVKDIRNYFQVSPEYFSMLLVGKDGNVKSWYPSPMWSMVIVYDLIDSMQLRRQEMAIQQSLGMRCPEDEYAGYGYHSYHQGYQDGYQDDYRHHESYHHGYPY
IL-17D [1]
  binding: binds
IL-17D [2]
  binding: binds
